# Experimental data from the supplement of paper PMC4604168 (melanoma cell lines).
# The list shows a part of the results. Many values rest on one well or one pass, so single values are uncertain.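 Cells were imaged in 1,536-well plates, and nuclei stained with an antibody against cleaved PARP were counted against all DNA-stained nuclei to give the apoptosis fraction. Screening doses were chosen to leave most cells alive, and resting and induced cleaved-PARP levels differ strongly between cell lines.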
# Key:
# Assay in all cases: cleaved PARP positive nuclei fraction relative to DMSO control; melanoma cells; higher = more apoptosis
# Details in all cases: library dose: low library concentration; 72 h
# CBRC034 = test system: CBRC034 (line from a melanoma biopsy)
# COLO792 = test system: COLO792
# COLO800 = test system: COLO800
# COLO829 = test system: COLO829
# G361 = test system: G361
# IPC-298 = test system: IPC-298
# IST-MEL1 = test system: IST-MEL1
# LB2518-MEL = test system: LB2518-MEL
# LOXIMVI = test system: LOXIMVI
# MEL-HO = test system: MEL-HO
# MZ2-MEL = test system: MZ2-MEL
# MeWo = test system: MeWo
# RPMI7951 = test system: RPMI7951
# RVH-421 = test system: RVH-421
# SkMel28 = test system: SkMel28
# SkMel2 = test system: SkMel2
# SkMel30 = test system: SkMel30
# UACC62 = test system: UACC62
SMILES,cleaved PARP positive nuclei fraction (CBRC034) [%],cleaved PARP positive nuclei fraction (COLO792) [%],cleaved PARP positive nuclei fraction (COLO800) [%],cleaved PARP positive nuclei fraction (COLO829) [%],cleaved PARP positive nuclei fraction (G361) [%],cleaved PARP positive nuclei fraction (IPC-298) [%],cleaved PARP positive nuclei fraction (IST-MEL1) [%],cleaved PARP positive nuclei fraction (LB2518-MEL) [%],cleaved PARP positive nuclei fraction (LOXIMVI) [%],cleaved PARP positive nuclei fraction (MEL-HO) [%],cleaved PARP positive nuclei fraction (MZ2-MEL) [%],cleaved PARP positive nuclei fraction (MeWo) [%],cleaved PARP positive nuclei fraction (RPMI7951) [%],cleaved PARP positive nuclei fraction (RVH-421) [%],cleaved PARP positive nuclei fraction (SkMel28) [%],cleaved PARP positive nuclei fraction (SkMel2) [%],cleaved PARP positive nuclei fraction (SkMel30) [%],cleaved PARP positive nuclei fraction (UACC62) [%]
"C=CCNC1=C2C[C@@H](C)C[C@H](OC)[C@H](O)[C@@H](C)/C=C(\C)[C@H](OC(N)=O)[C@@H](OC)/C=C\C=C(/C)C(=O)NC(=CC1=O)C2=O [Tanespimycin] + C[C@]1(c2nc3c(C(N)=O)cccc3[nH]2)CCCN1 [Veliparib] (first compound 0.002 µM, partner dose 1.4 µM)",77,282,43.1,171,56.8,43.7,314,117,14.9,163,83.9,189,136,113,65.6,183,180,118
"Cc1nc(Nc2ncc(C(=O)Nc3c(C)cccc3Cl)s2)cc(N2CCN(CCO)CC2)n1 [dasatanib] + Nc1cccc2c1CN(C1CCC(=O)NC1=O)C2=O [lenalidomide] (first compound 0.004 µM, partner dose 1 µM)",93.4,146,77.5,124,101,87.3,103,116,168,160,78.3,127,138,136,105,62.9,23.1,102
"C#Cc1cccc(Nc2ncnc3cc(OCCOC)c(OCCOC)cc23)c1 [erlotinib] + COCC[n+]1c2c(n(Cc3cnccn3)c1C)C(=O)c1ccccc1C2=O [YM155] (first compound 0.8 µM, partner dose 0.0004 µM)",30.6,114,80.2,54.7,115,98.7,71,285,254,118,390,124,136,105,76.8,158,73.1,85
"C=CCNC1=C2C[C@@H](C)C[C@H](OC)[C@H](O)[C@@H](C)/C=C(\C)[C@H](OC(N)=O)[C@@H](OC)/C=C\C=C(/C)C(=O)NC(=CC1=O)C2=O [Tanespimycin] + Cc1nc(Nc2ncc(C(=O)Nc3c(C)cccc3Cl)s2)cc(N2CCN(CCO)CC2)n1 [dasatanib] (first compound 0.002 µM, partner dose 0.004 µM)",241,95.2,88.9,143,119,180,140,99.9,141,35.5,56.7,180,75.5,116,69.4,168,65.6,61.1
"COCC[n+]1c2c(n(Cc3cnccn3)c1C)C(=O)c1ccccc1C2=O + Cn1nnc2c(C(N)=O)ncn2c1=O [temozolomide] (first compound 0.0004 µM, partner dose 2 µM)",58.7,128,149,83,161,56,131,146,123,129,385,126,130,147,122,272,147,50.4
"CC(=O)c1c(C)c2cnc(Nc3ccc(N4CCNCC4)cn3)nc2n(C2CCCC2)c1=O [palbociclib] + Cn1nnc2c(C(N)=O)ncn2c1=O [temozolomide] (first compound 0.04 µM, partner dose 2 µM)",62.7,157,99.1,125,179,47.6,67.9,132,49.1,150,26.1,43.3,135,84.8,69.6,79.2,88.3,138
"Nc1cccc2c1CN(C1CCC(=O)NC1=O)C2=O (centres undefined) [lenalidomide] + Cn1nnc2c(C(N)=O)ncn2c1=O [temozolomide] (first compound 1 µM, partner dose 2 µM)",50.8,88.4,159,118,144,79.6,129,96,128,63.5,60.6,106,84.9,61.3,171,66.4,51.9,136
"COCC[n+]1c2c(n(Cc3cnccn3)c1C)C(=O)c1ccccc1C2=O + Nc1cccc2c1CN(C1CCC(=O)NC1=O)C2=O [lenalidomide] (first compound 0.0004 µM, partner dose 1 µM)",63.9,86.7,29.8,127,52.7,91.2,57.1,116,89.4,91.8,90.9,76,70.6,59,75.3,146,49.6,55.6
"CC(=O)c1c(C)c2cnc(Nc3ccc(N4CCNCC4)cn3)nc2n(C2CCCC2)c1=O [palbociclib] + COc1ccc(Cl)c(Nc2nc3ccccc3nc2NS(=O)(=O)c2cccc(NC(=O)C(C)(C)N)c2)c1 [XL147] (first compound 0.04 µM, partner dose 0.8 µM)",181,67.1,84.9,175,132,97.3,326,123,218,148,79.5,73.4,62,126,82.3,47.3,23.1,127
"CC(=O)c1c(C)c2cnc(Nc3ccc(N4CCNCC4)cn3)nc2n(C2CCCC2)c1=O [palbociclib] + COCC[n+]1c2c(n(Cc3cnccn3)c1C)C(=O)c1ccccc1C2=O [YM155] (first compound 0.04 µM, partner dose 0.0004 µM)",70.9,258,145,66.6,92.4,109,29.3,136,32.5,110,144,17,121,97,106,105,104,134
"Clc1ccc(Nc2nnc(Cc3ccncc3)c3ccccc23)cc1 [vatalanib] + Cn1c(Nc2ccc(C(F)(F)F)cc2)nc2cc(Oc3ccnc(-c4ncc(C(F)(F)F)[nH]4)c3)ccc21 [CHIR265] (first compound 2 µM, partner dose 0.08 µM)",35.2,153,73,97.2,180,84.2,76.8,150,312,64.5,144,164,215,92.4,193,148,44.6,109
"Clc1ccc(Nc2nnc(Cc3ccncc3)c3ccccc23)cc1 [vatalanib] + Cc1nc(Nc2ncc(C(=O)Nc3c(C)cccc3Cl)s2)cc(N2CCN(CCO)CC2)n1 [dasatanib] (first compound 2 µM, partner dose 0.004 µM)",159,208,149,159,64.1,179,214,108,492,142,163,123,436,99.5,88.4,135,60.8,181
"Nc1cccc2c1CN(C1CCC(=O)NC1=O)C2=O (centres undefined) [lenalidomide] + C[C@]1(c2nc3c(C(N)=O)cccc3[nH]2)CCCN1 [Veliparib] (first compound 1 µM, partner dose 1.4 µM)",176,88.7,132,143,96.4,172,31.1,240,152,34.2,76.7,82.6,117,61.4,97.3,103,109,191
"Cn1c(Nc2ccc(C(F)(F)F)cc2)nc2cc(Oc3ccnc(-c4ncc(C(F)(F)F)[nH]4)c3)ccc21 + Cn1nnc2c(C(N)=O)ncn2c1=O [temozolomide] (first compound 0.08 µM, partner dose 2 µM)",74.1,290,52.9,100,242,265,162,327,202,38.1,43.6,156,122,101,179,233,150,329
"C#Cc1cccc(Nc2ncnc3cc(OCCOC)c(OCCOC)cc23)c1 [erlotinib] + Cn1nnc2c(C(N)=O)ncn2c1=O [temozolomide] (first compound 0.8 µM, partner dose 2 µM)",73.1,119,83.2,106,150,135,41.5,116,82.7,117,98.2,159,35,74.8,99.5,100,96.7,81.8
"C[C@]1(c2nc3c(C(N)=O)cccc3[nH]2)CCCN1 [Veliparib] + Cn1nnc2c(C(N)=O)ncn2c1=O [temozolomide] (first compound 1.4 µM, partner dose 2 µM)",112,147,76.9,97,137,172,202,59.5,86.9,183,83.5,175,119,101,239,73.2,69.4,258
"C=CCNC1=C2C[C@@H](C)C[C@H](OC)[C@H](O)[C@@H](C)/C=C(\C)[C@H](OC(N)=O)[C@@H](OC)/C=C\C=C(/C)C(=O)NC(=CC1=O)C2=O [Tanespimycin] + COc1ccc(Cl)c(Nc2nc3ccccc3nc2NS(=O)(=O)c2cccc(NC(=O)C(C)(C)N)c2)c1 [XL147] (first compound 0.002 µM, partner dose 0.8 µM)",32.3,214,62.7,105,112,91.2,83.3,56.7,127,86.9,41,161,117,105,80.1,98,66.1,57.3
"Cc1nc(Nc2ncc(C(=O)Nc3c(C)cccc3Cl)s2)cc(N2CCN(CCO)CC2)n1 [dasatanib] + COCC[n+]1c2c(n(Cc3cnccn3)c1C)C(=O)c1ccccc1C2=O [YM155] (first compound 0.004 µM, partner dose 0.0004 µM)",265,178,120,126,69.5,96.9,69,137,141,90.3,162,84.7,476,95.1,96.7,165,67.7,139

# Another view of some results above.
SMILES | cleaved PARP positive nuclei fraction (CBRC034) [%] | cleaved PARP positive nuclei fraction (COLO792) [%] | cleaved PARP positive nuclei fraction (COLO800) [%] | cleaved PARP positive nuclei fraction (COLO829) [%] | cleaved PARP positive nuclei fraction (G361) [%] | cleaved PARP positive nuclei fraction (IPC-298) [%] | cleaved PARP positive nuclei fraction (IST-MEL1) [%] | cleaved PARP positive nuclei fraction (LB2518-MEL) [%] | cleaved PARP positive nuclei fraction (LOXIMVI) [%] | cleaved PARP positive nuclei fraction (MEL-HO) [%] | cleaved PARP positive nuclei fraction (MZ2-MEL) [%] | cleaved PARP positive nuclei fraction (MeWo) [%] | cleaved PARP positive nuclei fraction (RPMI7951) [%] | cleaved PARP positive nuclei fraction (RVH-421) [%] | cleaved PARP positive nuclei fraction (SkMel28) [%] | cleaved PARP positive nuclei fraction (SkMel2) [%] | cleaved PARP positive nuclei fraction (SkMel30) [%] | cleaved PARP positive nuclei fraction (UACC62) [%]
Nc1cccc2c1CN(C1CCC(=O)NC1=O)C2=O (centres undefined) [lenalidomide] + Cn1nnc2c(C(N)=O)ncn2c1=O [temozolomide] (first compound 1 µM, partner dose 2 µM) | 50.8 | 88.4 | 159 | 118 | 144 | 79.6 | 129 | 96 | 128 | 63.5 | 60.6 | 106 | 84.9 | 61.3 | 171 | 66.4 | 51.9 | 136
CC(=O)c1c(C)c2cnc(Nc3ccc(N4CCNCC4)cn3)nc2n(C2CCCC2)c1=O [palbociclib] + COCC[n+]1c2c(n(Cc3cnccn3)c1C)C(=O)c1ccccc1C2=O [YM155] (first compound 0.04 µM, partner dose 0.0004 µM) | 70.9 | 258 | 145 | 66.6 | 92.4 | 109 | 29.3 | 136 | 32.5 | 110 | 144 | 17 | 121 | 97 | 106 | 105 | 104 | 134
